# Measurements from the supplement of paper PMC8728848.
# The list shows a part of the results.
# B1: Mincle (Bos taurus) (protein)
# chain: MNSSTSPASQTERRCFSFQLFSWAIAGTSILLLSACFITRCVVTYSIFQLCDEKKFQPPGDSMELSCYNDGSGSVKNCCPLKWFHFQSSCYLFSPDTMSWRASLKNCSSMGAHLVVINTQEEQEFLYYTKPRKKEFYIGLTDQVTEGQWQWVDGTPFTKSLSFWDAGEPNNLVIVEDCATIRDSSNPRQNWNDVPCFFNMFRVCEMPERKI
# Legend:
# Experiment in all cases: glycan array binding signal (z-score within array); higher = stronger binding
# Settings in all cases: glycan notation: IUPAC condensed, linker removed
# [1] = target: Fuc(a1-2)Gal6S(b1-3)GlcNAc6S
# Procedure, shortened: (§1)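 Glycan array data came from 3228 arrays in the Consortium for Functional Glycomics database, and only arrays with an available protein sequence were kept. Glycan names were put into IUPAC-condensed notation, and columns mapping to the same glycan were averaged. The binding signal is a within-array Z-score, averaged across arrays of one protein sequence run at different concentrations or buffers and across linkers. A negative Z-score can be read as non-binding.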
# [2] = target: Fuc(a1-2)Gal6S(b1-4)Glc
# Procedure, shortened: as §1
# [3] = target: Fuc(a1-2)Gal6S(b1-4)Glc6S
# Procedure, shortened: as §1
# [4] = target: Fuc(a1-2)[Gal(a1-3)]Gal
# Procedure, shortened: as §1
# [5] = target: Fuc(a1-2)[Gal(a1-3)]Gal(b1-3)GalNAc
# Procedure, shortened: as §1
# [6] = target: Fuc(a1-2)[Gal(a1-3)]Gal(b1-3)GalNAc(b1-3)Gal(a1-4)Gal(b1-4)Glc
# Procedure, shortened: as §1
# [7] = target: Fuc(a1-2)[Gal(a1-3)]Gal(b1-3)GlcNAc
# Procedure, shortened: as §1
# [8] = target: Fuc(a1-2)[Gal(a1-3)]Gal(b1-3)GlcNAc(b1-2)Man(a1-3)[Fuc(a1-2)[Gal(a1-3)]Gal(b1-3)GlcNAc(b1-2)Man(a1-6)]Man(b1-4)GlcNAc(b1-4)GlcNAc
# Procedure, shortened: as §1
# [9] = target: Fuc(a1-2)[Gal(a1-3)]Gal(b1-3)GlcNAc(b1-2)Man(a1-3)[Fuc(a1-2)[Gal(a1-3)]Gal(b1-3)GlcNAc(b1-2)Man(a1-6)]Man(b1-4)GlcNAc(b1-4)[Fuc(a1-6)]GlcNAc
# Procedure, shortened: as §1
# [10] = target: Fuc(a1-2)[Gal(a1-3)]Gal(b1-3)GlcNAc(b1-3)GalNAc
# Procedure, shortened: as §1
# [11] = target: Fuc(a1-2)[Gal(a1-3)]Gal(b1-3)GlcNAc(b1-6)GalNAc
# Procedure, shortened: as §1
# [12] = target: Fuc(a1-2)[Gal(a1-3)]Gal(b1-4)Glc
# Procedure, shortened: as §1
# [13] = target: Fuc(a1-2)[Gal(a1-3)]Gal(b1-4)GlcNAc
# Procedure, shortened: as §1
# [14] = target: Fuc(a1-2)[Gal(a1-3)]Gal(b1-4)GlcNAc(b1-2)Man
# Procedure, shortened: as §1
# [15] = target: Fuc(a1-2)[Gal(a1-3)]Gal(b1-4)GlcNAc(b1-2)Man(a1-3)[Fuc(a1-2)[Gal(a1-3)]Gal(b1-4)GlcNAc(b1-2)Man(a1-6)]Man(b1-4)GlcNAc(b1-4)GlcNAc
# Procedure, shortened: as §1
# [16] = target: Fuc(a1-2)[Gal(a1-3)]Gal(b1-4)GlcNAc(b1-2)Man(a1-3)[Fuc(a1-2)[Gal(a1-3)]Gal(b1-4)GlcNAc(b1-2)Man(a1-6)]Man(b1-4)GlcNAc(b1-4)[Fuc(a1-6)]GlcNAc
# Procedure, shortened: as §1
# [17] = target: Fuc(a1-2)[Gal(a1-3)]Gal(b1-4)GlcNAc(b1-3)GalNAc
# Procedure, shortened: as §1
# [18] = target: Fuc(a1-2)[Gal(a1-3)]Gal(b1-4)GlcNAc(b1-3)[Fuc(a1-2)[Gal(a1-3)]Gal(b1-4)GlcNAc(b1-6)]GalNAc
# Procedure, shortened: as §1
# [19] = target: Fuc(a1-2)[Gal(a1-3)]Gal(b1-4)GlcNAc(b1-6)GalNAc
# Procedure, shortened: as §1
# [20] = target: Fuc(a1-2)[Gal(a1-3)]Gal(b1-4)[Fuc(a1-3)]Glc
# Procedure, shortened: as §1
# [21] = target: Fuc(a1-2)[Gal(a1-3)]Gal(b1-4)[Fuc(a1-3)]GlcNAc
# Procedure, shortened: as §1
# [22] = target: Fuc(a1-2)[Gal(a1-3)]Gal(b1-4)[Fuc(a1-3)]GlcNAc(b1-3)GalNAc
# Procedure, shortened: as §1
# [23] = target: Fuc(a1-2)[Gal(a1-4)]Gal(b1-4)GlcNAc
# Procedure, shortened: as §1
# [24] = target: Fuc(a1-2)[GalNAc(a1-3)]Gal
# Procedure, shortened: as §1
# [25] = target: Fuc(a1-2)[GalNAc(a1-3)]Gal(b1-3)GalNAc(a1-3)[Fuc(a1-2)]Gal(b1-4)GlcNAc
# Procedure, shortened: as §1
# [26] = target: Fuc(a1-2)[GalNAc(a1-3)]Gal(b1-3)GalNAc(b1-3)Gal(a1-4)Gal(b1-4)Glc
# Procedure, shortened: as §1
# [27] = target: Fuc(a1-2)[GalNAc(a1-3)]Gal(b1-3)GlcNAc
# Procedure, shortened: as §1
# [28] = target: Fuc(a1-2)[GalNAc(a1-3)]Gal(b1-3)GlcNAc(b1-2)Man(a1-3)[Fuc(a1-2)[GalNAc(a1-3)]Gal(b1-3)GlcNAc(b1-2)Man(a1-6)]Man(b1-4)GlcNAc(b1-4)GlcNAc
# Procedure, shortened: as §1
# [29] = target: Fuc(a1-2)[GalNAc(a1-3)]Gal(b1-3)GlcNAc(b1-2)Man(a1-3)[Fuc(a1-2)[GalNAc(a1-3)]Gal(b1-3)GlcNAc(b1-2)Man(a1-6)]Man(b1-4)GlcNAc(b1-4)[Fuc(a1-6)]GlcNAc
# Procedure, shortened: as §1
# [30] = target: Fuc(a1-2)[GalNAc(a1-3)]Gal(b1-3)GlcNAc(b1-3)GalNAc
# Procedure, shortened: as §1
# [31] = target: Fuc(a1-2)[GalNAc(a1-3)]Gal(b1-3)GlcNAc(b1-6)GalNAc
# Procedure, shortened: as §1
# [32] = target: Fuc(a1-2)[GalNAc(a1-3)]Gal(b1-4)Glc
# Procedure, shortened: as §1
# [33] = target: Fuc(a1-2)[GalNAc(a1-3)]Gal(b1-4)GlcNAc
# Procedure, shortened: as §1
# [34] = target: Fuc(a1-2)[GalNAc(a1-3)]Gal(b1-4)GlcNAc(b1-2)Man
# Procedure, shortened: as §1
# [35] = target: Fuc(a1-2)[GalNAc(a1-3)]Gal(b1-4)GlcNAc(b1-2)Man(a1-3)[Fuc(a1-2)[GalNAc(a1-3)]Gal(b1-4)GlcNAc(b1-2)Man(a1-6)]Man(b1-4)GlcNAc(b1-4)GlcNAc
# Procedure, shortened: as §1
# [36] = target: Fuc(a1-2)[GalNAc(a1-3)]Gal(b1-4)GlcNAc(b1-2)Man(a1-3)[Fuc(a1-2)[GalNAc(a1-3)]Gal(b1-4)GlcNAc(b1-2)Man(a1-6)]Man(b1-4)GlcNAc(b1-4)[Fuc(a1-6)]GlcNAc
# Procedure, shortened: as §1
# [37] = target: Fuc(a1-2)[GalNAc(a1-3)]Gal(b1-4)GlcNAc(b1-3)Gal(b1-4)GlcNAc
# Procedure, shortened: as §1
# [38] = target: Fuc(a1-2)[GalNAc(a1-3)]Gal(b1-4)GlcNAc(b1-3)Gal(b1-4)GlcNAc(b1-3)Gal(b1-4)GlcNAc
# Procedure, shortened: as §1
# [39] = target: Fuc(a1-2)[GalNAc(a1-3)]Gal(b1-4)GlcNAc(b1-3)GalNAc
# Procedure, shortened: as §1
# [40] = target: Fuc(a1-2)[GalNAc(a1-3)]Gal(b1-4)GlcNAc(b1-3)[Fuc(a1-2)[GalNAc(a1-3)]Gal(b1-4)GlcNAc(b1-6)]GalNAc
# Procedure, shortened: as §1
# [41] = target: Fuc(a1-2)[GalNAc(a1-3)]Gal(b1-4)GlcNAc(b1-6)GalNAc
# Procedure, shortened: as §1
# [42] = target: Fuc(a1-2)[GalNAc(a1-3)]Gal(b1-4)[Fuc(a1-3)]GlcNAc
# Procedure, shortened: as §1
# [43] = target: Fuc(a1-2)[GalNAc(a1-3)]Gal(b1-4)[Fuc(a1-3)]GlcNAc(b1-3)GalNAc
# Procedure, shortened: as §1
# [44] = target: Fuc(a1-2)[GalNAc(a1-4)]Gal(b1-4)GlcNAc
# Procedure, shortened: as §1
# [45] = target: Fuc(a1-2)[GalNAc(b1-3)]Gal
# Procedure, shortened: as §1
binder,measurement,setting,value
B1,glycan array binding signal (z-score),[1],0.225
same,glycan array binding signal (z-score),[2],0.681
same,glycan array binding signal (z-score),[3],-0.944
same,glycan array binding signal (z-score),[4],-0.737
same,glycan array binding signal (z-score),[5],0.122
same,glycan array binding signal (z-score),[6],-0.381
same,glycan array binding signal (z-score),[7],-0.03
same,glycan array binding signal (z-score),[8],-0.02
same,glycan array binding signal (z-score),[9],-0.12
same,glycan array binding signal (z-score),[10],-0.485
same,glycan array binding signal (z-score),[11],-0.35
same,glycan array binding signal (z-score),[12],0.602
same,glycan array binding signal (z-score),[13],-0.26
same,glycan array binding signal (z-score),[14],0.176
same,glycan array binding signal (z-score),[15],0.245
same,glycan array binding signal (z-score),[16],-0.601
same,glycan array binding signal (z-score),[17],0.2
same,glycan array binding signal (z-score),[18],-0.439
same,glycan array binding signal (z-score),[19],0.669
same,glycan array binding signal (z-score),[20],0.479
same,glycan array binding signal (z-score),[21],0.405
same,glycan array binding signal (z-score),[22],0.905
same,glycan array binding signal (z-score),[23],-0.081
same,glycan array binding signal (z-score),[24],0.052
same,glycan array binding signal (z-score),[25],0.332
same,glycan array binding signal (z-score),[26],-0.374
same,glycan array binding signal (z-score),[27],0.068
same,glycan array binding signal (z-score),[28],-0.527
same,glycan array binding signal (z-score),[29],0.364
same,glycan array binding signal (z-score),[30],0.855
same,glycan array binding signal (z-score),[31],-0.552
same,glycan array binding signal (z-score),[32],0.022
same,glycan array binding signal (z-score),[33],-0.683
same,glycan array binding signal (z-score),[34],-0.25
same,glycan array binding signal (z-score),[35],0.419
same,glycan array binding signal (z-score),[36],-0.007
same,glycan array binding signal (z-score),[37],-0.747
same,glycan array binding signal (z-score),[38],0.769
same,glycan array binding signal (z-score),[39],-0.54
same,glycan array binding signal (z-score),[40],-0.629
same,glycan array binding signal (z-score),[41],-0.73
same,glycan array binding signal (z-score),[42],-0.716
same,glycan array binding signal (z-score),[43],1.2
same,glycan array binding signal (z-score),[44],-0.983
same,glycan array binding signal (z-score),[45],0.834

# Two entries picked at random from the list so far:
binder,measurement,setting,value
B1,glycan array binding signal (z-score),[29],0.364
same,glycan array binding signal (z-score),[10],-0.485
